Values quoted from earlier work, collected in US12409168B2, “Formulations of aminopenicillin and methods for solubilizing aminopenicillin” (VETERINARY PHARMACY CORPORATION, priority 2023, dated 2025).
Some entries share one result that the patent states for a list of compounds.

Settings: generally known

Row | Compound | pH of highest stability
1 | CC1(C)S[C@@H]2[C@H](NC(=O)[C@H](N)c3ccc(O)cc3)C(=O)N2[C@H]1C(=O)O [Amoxicillin] | 5-8
2 | CC1(C)S[C@@H]2[C@H](NC(=O)[C@H](N)c3ccccc3)C(=O)N2[C@H]1C(=O)O [Ampicillin] | 5-8
